The values below come from publication PMC4740771, “Nucleotide-dependent assembly of the peroxisomal receptor export complex” (Scientific Reports, 2016).

The labels stand for the following.
T1: HisPex1p released from HisPex1pGST by thrombin (S. cerevisiae) (UniProt P24004)
T1 sequence: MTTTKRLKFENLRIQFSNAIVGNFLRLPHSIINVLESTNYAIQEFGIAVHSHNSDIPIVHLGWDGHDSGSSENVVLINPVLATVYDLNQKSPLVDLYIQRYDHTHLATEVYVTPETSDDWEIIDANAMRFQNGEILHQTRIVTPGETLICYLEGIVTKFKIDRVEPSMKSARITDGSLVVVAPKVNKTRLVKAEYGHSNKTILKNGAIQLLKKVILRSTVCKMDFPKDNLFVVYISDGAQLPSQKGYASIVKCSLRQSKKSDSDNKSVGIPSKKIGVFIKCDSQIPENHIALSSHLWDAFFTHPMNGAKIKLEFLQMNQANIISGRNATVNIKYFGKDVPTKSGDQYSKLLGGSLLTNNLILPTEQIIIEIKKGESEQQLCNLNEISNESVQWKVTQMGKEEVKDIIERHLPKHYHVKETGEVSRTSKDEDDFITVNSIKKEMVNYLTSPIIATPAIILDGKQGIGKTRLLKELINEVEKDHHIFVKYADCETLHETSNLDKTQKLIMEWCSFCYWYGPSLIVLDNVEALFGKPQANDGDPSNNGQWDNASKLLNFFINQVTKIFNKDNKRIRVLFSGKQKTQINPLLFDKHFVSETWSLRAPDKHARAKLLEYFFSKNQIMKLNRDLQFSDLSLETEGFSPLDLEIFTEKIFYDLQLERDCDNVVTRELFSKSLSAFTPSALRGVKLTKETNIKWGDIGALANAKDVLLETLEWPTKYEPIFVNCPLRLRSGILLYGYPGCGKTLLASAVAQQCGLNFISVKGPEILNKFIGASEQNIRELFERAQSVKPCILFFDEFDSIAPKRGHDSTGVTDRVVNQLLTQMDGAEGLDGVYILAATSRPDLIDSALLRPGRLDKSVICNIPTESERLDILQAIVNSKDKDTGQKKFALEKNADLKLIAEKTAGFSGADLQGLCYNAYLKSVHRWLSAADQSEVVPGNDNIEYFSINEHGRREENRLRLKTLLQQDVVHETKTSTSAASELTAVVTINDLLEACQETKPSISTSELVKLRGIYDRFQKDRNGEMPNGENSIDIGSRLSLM

B1: HisPex6p (natural protein, S. cerevisiae, UniProt P33760 1-1030, looked up)
chain: MKASLTFSLSGIYAPCSISRDIYLEYGDKKAECLYGTIRLPQYGPGCTPGKIVHCVLDDSLPFCSIVVPSKLFGFMPTQPTMDFCYFEPILDNVVPVLDSVTFLINEQLYSKLMDLPQEMQQIQFLHYKYNINSMETVVHSRDILTSGLCQILNCSPFPQGLVDFTETQLILVNDTEQKLSALKYANEDEEYALPKIGTNSALSIDLESLPCTISRDLLRPAPHINDDNSIYAFTDAETLLRLDVTSGSFITVSNMGCVRLVKLFVLLLPNGFKKRTIYAPPKIIASFPDCSVVTISKSNIGHTDIPIANQVFISRVGGWLQSQKCFQNIILTTLKKFFSESKRILCQNDLIPIAFDSSMADLNIAEENDESDDEDELGQYYKNDSLVWFFVTSAELDCFSKDNSHFIIDPNRTKLITTNITNRRPLPLSRSNLQRYYGFAETFYYDLHIFPYVRQLVNILETSFNCSQRGITLNASVLLHSTTNNVGKATMVRFASKYLGIHLLEIDCLSLTSNSRQLDSTSKIIGYIRAKCENVLPYASPAVIFLAHLDSILLDVNANQDPEAIKLQKSINFEMSKLLDDFTFKFPGTTFVGSVNNIDNVPSSFRSHMRFEILVPVPSEAQRLRIFQWYLSSHELNRDVQQKVPVSYMDNISFSSLSSYSAGLTPLDIKSIVETARMTATARFYQESKKCGWLPQSILITQEDLSKATSKARNEFSVSIGAPQIPNVTWDDIGGIDFVKGEILDTIDMPLKHPELFTSGMKKRSGILFYGPPGTGKTLMAKAIATNFSLNFFSVKGPELLNMYIGESEANVRRVFQKAREAKPCVIFFDEIDSVAPKRGNQGDSGGVMDRIVSQLLAELDGMSTDADGVFVIGATNRPDLLDEALLRPGRFDKLLYLGIPDTDTKQLNILEALTRKFVLDNDVKLIELAKLCPFNYTGADFYALCSDAMLNAMSRIARMVEKKVSQHNELTGENISTRRWFDKIATKEDTKVVVKMEDFLKAQEQLTPSVSRAELNHYEAVRANFEGA
notes: Pex6p, type II AAA-ATPase peroxin of yeast; also called single Pex6p; isolated Pex6p; source: E. coli Tuner (DE3), purified (NiNTA-agarose; with HisPex1pGST also GSH-agarose and size exclusion); not shown: His6, N-terminal, kept

Assay [1] addresses T1, HisPex1p released from HisPex1pGST by thrombin (S. cerevisiae). As to the kind of experiment: SEC; complexes of wild-type or Walker B mutant Pex1p with Pex6p purified by tandem affinity chromatography and size exclusion chromatography; nucleotide not stated for this experiment; both purified. For orientation: Size exclusion chromatography separates by hydrodynamic size, large species first.

For assay [2], the target named is B1. As to the kind of experiment: SEC; as a1 but isolated and run in the presence of 5 mM ADP instead of ATP; both purified.
In assay [3] the target is B1. As to the kind of experiment: SEC; second gel filtration of the purified heterohexameric complexes after incubation at 37 °C; both purified.

Results are given in words; binding and its absence hold for the method and conditions named. Some entries that bind do so weakly or less than the wild type. Sequences can lack the tags named with a protein.

For B1, the binding entry is “binds” in assay [1], “no binding” with HisPex6p [2] and “no binding” in the assay with HisPex6p [3].
